Assay results as given in paper doi:10.1101/2021.05.10.443488.

Biological target: T1, HelRSv-FLAG (C-terminal FLAG-tagged HelRSv) (Streptomyces venezuelae) (UniProt F2RC64)
T1 sequence: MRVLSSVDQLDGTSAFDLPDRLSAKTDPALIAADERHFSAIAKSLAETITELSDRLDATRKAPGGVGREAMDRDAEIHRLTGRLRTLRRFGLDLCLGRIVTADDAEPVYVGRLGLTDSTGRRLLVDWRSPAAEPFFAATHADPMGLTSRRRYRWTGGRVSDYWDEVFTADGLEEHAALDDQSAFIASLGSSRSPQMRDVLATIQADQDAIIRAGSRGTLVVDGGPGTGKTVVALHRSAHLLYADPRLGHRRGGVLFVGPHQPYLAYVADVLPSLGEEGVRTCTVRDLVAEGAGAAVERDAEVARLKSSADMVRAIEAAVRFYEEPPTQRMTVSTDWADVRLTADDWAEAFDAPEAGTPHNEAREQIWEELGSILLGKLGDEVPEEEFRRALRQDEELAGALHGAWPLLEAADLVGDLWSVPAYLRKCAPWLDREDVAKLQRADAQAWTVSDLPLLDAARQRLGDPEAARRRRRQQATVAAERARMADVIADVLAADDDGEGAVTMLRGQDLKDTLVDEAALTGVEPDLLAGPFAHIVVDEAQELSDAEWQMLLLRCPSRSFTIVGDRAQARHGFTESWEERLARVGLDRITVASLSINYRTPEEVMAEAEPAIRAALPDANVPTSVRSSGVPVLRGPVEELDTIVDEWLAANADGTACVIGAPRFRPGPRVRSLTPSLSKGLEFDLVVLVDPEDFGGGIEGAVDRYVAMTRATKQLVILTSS
Experiment: co-IP

**Q.** Which binding does the source give for “RNA polymerase (RNAP) of Streptomyces venezuelae (complex)” here?
**A.** binds

Results are given in words; binding and its absence hold for the method and conditions named. Binding seen in cells or lysates may run through a third protein. A result given as binding can be weak or reduced; the word gives no strength. Sequences can lack the tags named with a protein.
